We go through 48 molecules from PubChem BioAssay AID1794844 (National Center for Advancing Translational Sciences (NCATS), 2023).

Sequences of proteins named here, by UniProt entry; tags and fusion partners are left off. A change or cut given only in a name is not applied to a line headed by its entry.
UniProt C7C422: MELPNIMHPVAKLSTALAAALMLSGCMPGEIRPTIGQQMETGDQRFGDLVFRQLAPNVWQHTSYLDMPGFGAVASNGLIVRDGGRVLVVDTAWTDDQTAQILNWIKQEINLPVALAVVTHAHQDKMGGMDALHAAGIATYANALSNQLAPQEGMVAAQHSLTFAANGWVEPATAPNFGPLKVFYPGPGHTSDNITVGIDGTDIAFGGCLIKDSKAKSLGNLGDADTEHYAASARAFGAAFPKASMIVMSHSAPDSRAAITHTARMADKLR

Structures are written as SMILES. Fewer than 10 of roughly 2,800 compounds were called active. Roughly 7% stayed inconclusive and do not appear here. Calls follow the shape of the dose curve; as a rule, active = well fitted inhibition curve with a large enough effect; inconclusive = small, poorly fitted or top-dose-only effect; inactive = no such curve, though single readings can be large or run the other way. The list shows a part of the results.

The target of this test is Metallo-beta-lactamase type 2 (Klebsiella pneumoniae) (UniProt C7C422). The experiment in a line: qHTS to identify inhibitors of the New Delhi Metallo-beta-lactamase (NDM): Nitrocefin screen against the machine-based learning selections. Also: % of control where 0% means no effect. As to conditions: NDM-1 enzyme, nitrocefin hydrolysis, absorbance 485 nm; activity, negative = inhibition: at the top concentration. The text has this:
Assay Submitter (PI): James Inglese Ph.D., Patricia Dranchak Ph.D., Mahesh Aitha Ph.D. Assay Development and Screening Technology Laboratory (ADST) National Center for Advancing Translational Sciences (NCATS), Rockville, MD National Institute of Health (NIH), Bethesda, Maryland The metallo-beta-lactamases (MBL) are a main antibiotic resistance mechanism evolved by bacteria. There is an urgent clinical need for MBL inhibitors to mitigate this growing threat. To support a machine-based learning study, qHTS has been used to experimentally test inhibitors identified by prediction tools.
PROTOCOL TABLE (as described by Inglese et al., 2007) SEQUENCE No. (e.g., 1, 2, 3, etc.); […] (e.g., enzyme, Incubation, Reagent, etc.); VALUE; DESCRIPTION Primary Screen 1; NDM-1; 4 uL of 3 nM enzyme [2 nM final] in 50 mM HEPES (pH 7.0), 1 uM […], 0.01% Tween20; Use BioRaptr to dispense into two sets of Aurora black, clear bottom high base 1536-well plates 2; Compounds; 23 nL; Use Pin Tool (Wako) to transfer DMSO control and library compounds in DMSO 3; Incubate; >30 min 4a; Reagent; 2 uL of 50 uM nitrocefin [16.7 uM final] to one set of assay plates 4b; Reagent; 2 uL of 150 uM meropenem [50 uM final] to second set of assay plates 5a; Incubate; 15 min 5b; Incubate; 30 min 6a; Detector; Absorbance at 485 nm (bandwidth = 5 nm, 25 flashes/well) on Tecan Infinity 6b; Detector; Absorbance at 300 nm (bandwidth = 5 nm, 25 flashes/well) on Tecan Infinity NOTES (numbers refer to sequence above) 1; Column 1 of each plate received assay buffer without enzyme and columns 2-48 received enzyme for a final assay concentration of 2 nM. 2; Control plate contained DMSO in columns 1, 2, 3, and 4. 3; Compound interaction with enzyme. 4; Nitrocefin and meropenem substrates were prepared in the same assay buffer as step 1 for a final assay concentration of 16.7 uM and 50 uM, respectively, and added to all wells across respective sets of assay plates. 5; Default reader settings were applied for absorbance read at 485 nm (nitrocefin) or 300 nm (meropenem), bandwidth = 5 nm, 25 flashes/well. References: Inglese J, Shamu CE, Guy RK. 2007. Reporting data from high-throughput screening of small-molecule libraries. Nat Chem Biol. doi:10.1038/nchembio0807-438 Yasgar A, Shinn P, Jadhav A, Auld D, Michael S, Zheng W, Austin CP, Inglese J, Simeonov A. 2008. Compound Management for Quantitative High-Throughput Screening. J Lab Autom 13:79 - 89. doi:10.1016/j.jala.2007.12.004
A general note: qHTS replaces the single test concentration by a dilution series.
With `N#Cc1cccc(CN2CCC[C@H]2c2nc(-c3ccc(OC4CCCCC4)nc3)no2)c1`, the “activity, negative = inhibition” value is inactive: -4.25% [at 57.5 µM]. In the case of `O[C@@H]1C[C@@H](c2nnc3n2CCN(Cc2ccccc2)C3)N(Cc2ccccc2)C1`, the “activity, negative = inhibition” value is inactive: -2.71%.

Turning to `Cc1ccc(-c2cc(O)c3c(c2)CNCCO3)cc1`, the “activity, negative = inhibition” value is inactive: -2.39%. Turning to `COc1ccc(C(=O)N[C@H]2CO[C@H]3[C@@H]2OC[C@@H]3n2nnnc2-c2cccc(OC)c2)cc1`, the “activity, negative = inhibition” value was inactive: -3.19%. Regarding `O=C(Cc1noc2ccccc12)N[C@@H]1COCC[C@@H]1OCc1ccccn1`, the “activity, negative = inhibition” value is inactive: -3.82%.

With `C=CCn1cc2c3c(cccc31)[C@H](CC(C)C)N[C@H](C(=O)N1CCOCC1)C2`, the “activity, negative = inhibition” value is inactive: 7.68% [at 57.5 µM]. `Cc1nn(Cc2ccccc2)c(C)c1[C@@H]1C=C[C@@H](NC(=O)NC2CCCCC2)C1`: the “activity, negative = inhibition” value was inactive: -11.6% [at 57.5 µM]. Turning to `CCCN1CC2(CCN(C(=O)c3ccc(C)nc3)CC2)CC1C(=O)O` (stereo not drawn), the “activity, negative = inhibition” value was inactive: -5.46%. As for `COCC(=O)N1CCCc2nc(C)nc(-c3ccc(O)cc3)c2C1`, the “activity, negative = inhibition” value is inactive: 1.22% [at 57.5 µM]. To `C[S+](=O)([O-])CCn1ncc2cc(OCc3cccc(-c4cccc(O)c4)c3)ccc21` belongs inactive: -9.78% [at 57.5 µM]; to `COC(=O)[C@H](CC1CCCCC1)NC(=O)[C@H]1CN(C(=O)c2cccc(F)c2)CCN1C(C)=O`, inactive: -8.77%. With `CC(C)CC(=O)N1CCN(c2nnc3ccccn23)CC1`, the “activity, negative = inhibition” value is inactive: 9.22%.

In the case of `COc1cccc(Nc2n[nH]c(C(O)c3cccc(C(F)(F)F)c3)n2)c1` (stereo not drawn), the “activity, negative = inhibition” value is inactive: -5.53% [at 57.5 µM].

Turning to `O=C(Cc1ccccn1)N1CCC(N2CC3CCCN3C2=O)CC1` (stereo not drawn), the “activity, negative = inhibition” value is inactive: -0.101% [at 57.5 µM]. Consider `Cc1cc(C)c(CNC(=O)c2nc(-c3cccnc3)cc3[nH]ccc23)c(=O)[nH]1`, for which the “activity, negative = inhibition” value was inactive: -12.9% [at 57.5 µM]. As for `CC(C)c1noc(-c2cccn3c(CNC(=O)c4cccc5[nH]ccc45)nnc23)n1`, the “activity, negative = inhibition” value is inactive: 0.533%.

Take `OC1(CN2CCCCC2)CCN(c2nc3ccccc3s2)C1` (stereo not drawn): the “activity, negative = inhibition” value is inactive: 3.39%. On to `O=C1NCCC[C@@H]1NC(=O)[C@H]1CN(C(=O)c2cccc(F)c2)CCN1C(=O)c1cccs1`, for which the “activity, negative = inhibition” value is inactive: -4.39%.

Take `O=C(O)c1cc(Br)cc(S(=O)(=O)NCC2CCCO2)c1` (stereo not drawn): the “activity, negative = inhibition” value was inactive: -4.23%. Next, `O=C1N[C@@H]2CCN(C(=O)c3ccc(-c4ccccc4)cc3)[C@@H]2C(=O)N1c1ccc(F)cc1`: inactive: -7.85% [at 57.5 µM]; `CC(C)CCN1CCc2[nH]nc(C(=O)N(C)C)c2C1`: inactive: -5.92%. On to `O=c1c2nc(-c3ccc(O)c(F)c3)ccc2ncn1Cc1ccccn1`, for which the “activity, negative = inhibition” value is inactive: 2.13% [at 57.5 µM]. Consider `CCc1nc(NCCc2cc(OC)cc(OC)c2)c2cnn(C)c2n1`, for which the “activity, negative = inhibition” value was inactive: -3.8%. With `O=C(C[C@@H]1O[C@H](CNC(=O)c2ccccc2)[C@@H](O)[C@H]1O)NC1CC1`, the “activity, negative = inhibition” value is inactive: -6.38% [at 57.5 µM]. On to `OCc1cccc(-c2ccc3ncc(Nc4ccccc4F)n3n2)c1`, for which the “activity, negative = inhibition” value is inactive: -7.54% [at 57.5 µM]. As to `COc1ccc(-c2noc([C@@H]3C[C@@H](O)CN3Cc3ncc[nH]3)n2)cc1`, the “activity, negative = inhibition” value was inactive: 1.33% [at 57.5 µM]. On to `Cc1nc(C(=O)N2CCC(c3nnc(CN4CCCC4)n3C)CC2)cs1`, for which the “activity, negative = inhibition” value is inactive: -8.34%.

As for `c1cncc(Nc2cc3c(cn2)CN(Cc2ccc4[nH]ccc4c2)CCN3)c1`, the “activity, negative = inhibition” value is inactive: 6.75% [at 57.5 µM]. Next, `F[C@@H]1CN(Cc2cccnc2)C[C@@H]1OCc1nc2ccc(C(F)(F)F)cc2[nH]1`: inactive: -5.95% [at 57.5 µM]. With `COc1ccc(CNC(=O)C[C@@H]2CCNC[C@@H]2Cc2cc(COc3ccccc3)on2)cc1`, the “activity, negative = inhibition” value is inactive: 8.54%.

As for `O=C(c1ccccc1-c1ncn[nH]1)N1CCn2nc(Cc3ccccc3)cc2C1`, the “activity, negative = inhibition” value was inactive: 3.73%.

For the molecule `COc1ccccc1CNC(=O)C[C@@H]1[C@H](O)CCC2[C@](C)(CO)[C@H](OC(=O)NC(C)C)CC[C@]21C` (stereo partly drawn), the “activity, negative = inhibition” value is inactive: -1.64%. Turning to `C[C@@H]1CN(C(=O)CCN(C)S(C)(=O)=O)C[C@@]1(O)C1CC1`, the “activity, negative = inhibition” value was inactive: 1.3%.

Turning to `COc1ccc(NC(=O)C2(C)CCCc3cnc(Nc4cccnc4)nc32)cc1` (stereo not drawn), the “activity, negative = inhibition” value is inactive: 5.21% [at 57.5 µM]. Turning to `O=C(Nc1ncc(-c2ccccc2)c2c1OCC2)c1cn[nH]c1`, the “activity, negative = inhibition” value was inactive: -1.33% [at 57.5 µM].

In the case of `NCCC[C@@H](N)C(=O)N1CCCC(c2ccccc2)(c2ccccc2)C1`, the “activity, negative = inhibition” value is inactive: 21.8%.

For the molecule `CC1(C)[C@H](Cc2cc(CCO)on2)C[C@@H]1N(S(C)(=O)=O)S(C)(=O)=O`, the “activity, negative = inhibition” value was inactive: -0.982% [at 57.5 µM]. `CCOC(=O)CCNC(=O)N1CCC(Oc2ncccc2C(=O)N2CCCCC2)C1` (stereo not drawn): the “activity, negative = inhibition” value was inactive: 2.5%. `Fc1ccc(CNc2cc3c(cn2)NCCN(Cc2ccccc2)C3)cc1`: the “activity, negative = inhibition” value is inactive: 0.152% [at 57.5 µM]. Turning to `COc1ccc2nc3n(c2c1)[C@@H](CNC(=O)c1ccc(F)cc1)COC3`, the “activity, negative = inhibition” value was inactive: 1.28% [at 57.5 µM]. As to `COCCNC(=O)c1ccc2c(c1)N(C)C(CC(=O)N1CCCCC1)CO2` (stereo not drawn), the “activity, negative = inhibition” value is inactive: -0.115%.

As for `COc1ccc([C@H]2C[C@@H](O)[C@@H](O)[C@@H]2NCc2ccc(OC)nc2)cc1`, the “activity, negative = inhibition” value is inactive: -2% [at 57.5 µM]. Next, `Oc1cccc(CN(Cc2ccsc2)Cc2ccco2)c1`: inactive: -0.858%; `COC(=O)c1cc2n(n1)CCCN(C(=O)c1cc(CC(C)C)no1)C2`: inactive: -1.33%. Take `O=C(NCc1c[nH]c2ncccc12)c1ccccn1`: the “activity, negative = inhibition” value was inactive: 2.45% [at 57.5 µM]. For `Cc1nn(-c2ccccc2Cl)c(=O)n1CC(=O)N(C)C(C)c1ccon1` (stereo not drawn), the “activity, negative = inhibition” value was inactive: 0.444%. With `NS(=O)(=O)c1ccc(CNc2nccc(-c3cccnc3)n2)cc1`, the “activity, negative = inhibition” value is inactive: -0.0944%. As to `Cc1cc(C(=O)N2CC[C@H](NS(=O)(=O)c3cccs3)C[C@H]2C(=O)N[C@H](C)C(N)=O)n(C)n1`, the “activity, negative = inhibition” value is inactive: -6.71%.
